This assay deals with Hypoxia-inducible factor 1-alpha (HIF-1α), human (human (endogenous in UT7/TPO)) (UniProt Q16665). Kind of assay: co-IP.

Chains of the proteins cited; added tags and fusions are not shown.
UniProt Q16665: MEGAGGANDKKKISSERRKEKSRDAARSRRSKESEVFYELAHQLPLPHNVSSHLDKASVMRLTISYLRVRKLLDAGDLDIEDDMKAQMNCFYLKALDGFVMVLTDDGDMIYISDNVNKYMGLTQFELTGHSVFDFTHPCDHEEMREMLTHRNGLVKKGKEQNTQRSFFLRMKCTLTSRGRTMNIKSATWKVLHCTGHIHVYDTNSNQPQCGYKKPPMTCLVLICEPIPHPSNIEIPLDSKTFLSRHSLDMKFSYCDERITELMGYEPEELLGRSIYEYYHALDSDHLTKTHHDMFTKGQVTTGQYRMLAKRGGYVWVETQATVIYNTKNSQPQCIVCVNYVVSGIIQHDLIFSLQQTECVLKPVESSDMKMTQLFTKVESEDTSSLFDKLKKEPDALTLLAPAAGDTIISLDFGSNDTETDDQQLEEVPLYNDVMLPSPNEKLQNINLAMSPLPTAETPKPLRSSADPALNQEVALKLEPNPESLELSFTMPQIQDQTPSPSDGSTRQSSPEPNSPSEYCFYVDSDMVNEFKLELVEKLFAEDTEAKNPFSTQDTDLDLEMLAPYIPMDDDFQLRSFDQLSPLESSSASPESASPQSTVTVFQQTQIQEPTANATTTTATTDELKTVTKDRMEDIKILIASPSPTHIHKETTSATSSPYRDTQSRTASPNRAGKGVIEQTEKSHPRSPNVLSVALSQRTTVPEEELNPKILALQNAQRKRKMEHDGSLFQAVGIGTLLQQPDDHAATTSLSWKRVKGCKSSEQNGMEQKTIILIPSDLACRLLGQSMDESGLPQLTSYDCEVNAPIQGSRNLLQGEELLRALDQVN

No constants are given. Whether binding was seen depends on the method and setting. Binding seen in cells or lysates may run through a third protein. Some entries that bind do so weakly or less than the wild type.

B1: GOLGA3, human (protein, UniProt Q08378 1-1498)
chain: MDGASAEQDGLQEDRSHSGPSSLPEAPLKPPGPLVPPDQQDKVQCAEVNRASTEGESPDGPGQGGLCQNGPTPPFPDPPSSLDPTTSPVGPDASPGVAGFHDNLRKSQGTSAEGSVRKEALQSLRLSLPMQETQLCSTDSPLPLEKEEQVRLQARKWLEEQLKQYRVKRQQERSSQPATKTRLFSTLDPELMLNPENLPRASTLAMTKEYSFLRTSVPRGPKVGSLGLPAHPREKKTSKSSKIRSLADYRTEDSNAGNSGGNVPAPDSTKGSLKQNRSSAASVVSEISLSPDTDDRLENTSLAGDSVSEVDGNDSDSSSYSSASTRGTYGILSKTVGTQDTPYMVNGQEIPADTLGQFPSIKDVLQAAAAEHQDQGQEVNGEVRSRRDSICSSVSLESSAAETQEEMLQVLKEKMRLEGQLEALSLEASQALKEKAELQAQLAALSTKLQAQVECSHSSQQRQDSLSSEVDTLKQSCWDLERAMTDLQNMLEAKNASLASSNNDLQVAEEQYQRLMAKVEDMQRSMLSKDNTVHDLRQQMTALQSQLQQVQLERTTLTSKLKASQAEISSLQSVRQWYQQQLALAQEARVRLQGEMAHIQVGQMTQAGLLEHLKLENVSLSQQLTETQHRSMKEKGRIAAQLQGIEADMLDQEAAFMQIQEAKTMVEEDLQRRLEEFEGERERLQRMADSAASLEQQLEQVKLTLLQRDQQLEALQQEHLDLMKQLTLTQEALQSREQSLDALQTHYDELQARLGELQGEAASREDTICLLQNEKIILEAALQAAKSGKEELDRGARRLEEGTEETSETLEKLREELAIKSGQVEHLQQETAALKKQMQKIKEQFLQQKVMVEAYRRDATSKDQLISELKATRKRLDSELKELRQELMQVHGEKRTAEAELSRLHREVAQVRQHMADLEGHLQSAQKERDEMETHLQSLQFDKEQMVAVTEANEALKKQIEELQQEARKAITEQKQKMRRLGSDLTSAQKEMKTKHKAYENAVGILSRRLQEALAAKEAADAELGQLRAQGGSSDSSLALHERIQALEAELQAVSHSKTLLEKELQEVIALTSQELEESREKVLELEDELQESRGFRKKIKRLEESNKKLALELEHEKGKLTGLGQSNAALREHNSILETALAKREADLVQLNLQVQAVLQRKEEEDRQMKHLVQALQASLEKEKEKVNSLKEQVAAAKVEAGHNRRHFKAASLELSEVKKELQAKEHLVQKLQAEADDLQIREGKHSQEIAQFQAELAEARAQLQLLQKQLDEQLSKQPVGNQEMENLKWEVDQKEREIQSLKQQLDLTEQQGRKELEGLQQLLQNVKSELEMAQEDLSMTQKDKFMLQAKVSELKNNMKTLLQQNQQLKLDLRRGAAKTRKEPKGEASSSNPATPIKIPDCPVPASLLEELLRPPPAVSKEPLKNLNSCLQQLKQEMDSLQRQMEEHALTVHESLSSWTPLEPATASPVPPGGHAGPRGDPQRHSQSRASKEGPGE
Consider B1, for which the binding entry is “binds”.

Source of the values: doi:10.1101/2024.07.02.601518.
